From patent US20240034783A1 come the findings set out here.

Protein sequences, listed by entry. Tags and fused reporters are not part of them. Lines headed by an entry give the natural chain unless they say otherwise; changes in a name come on top.
UniProt P56857: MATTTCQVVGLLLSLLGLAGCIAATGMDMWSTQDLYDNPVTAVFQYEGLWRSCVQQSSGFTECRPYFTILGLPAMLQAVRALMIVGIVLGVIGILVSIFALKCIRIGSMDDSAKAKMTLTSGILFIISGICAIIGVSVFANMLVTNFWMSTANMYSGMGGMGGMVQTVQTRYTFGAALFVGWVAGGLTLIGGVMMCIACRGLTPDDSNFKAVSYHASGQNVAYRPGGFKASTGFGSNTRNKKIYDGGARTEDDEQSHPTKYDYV

No constants are given. Whether binding was seen depends on the method and setting.

The labels stand for the following.
B1: cCl1-1 (antibody, V domains shown)
VH: QIQLVQSGPELKKPGESVKISCKASGYTFTDYAMHWVKQAPGKGLKWMGWINTYTGKPTYADDFKGRFVFSLEASASTANLQISNLKNEDTATYFCARAVFYGYTMDAWGQGTSVTVSS
VL: DIQMTQSPASLSASLGETISIACRASEDIYSNLAWYQQKSGKSPQLLIFSVKRLQDGVPSRFSGSGSGTQYSLKISGMQPEDEGDYFCLQGSNFPLTFGSGTKLEIK
B2: hCl1a (antibody, human IgG1, kappa, V domains shown)
VH: QVQLVQSGAEVKKPGASVKVSCKASGYTFTDYAMHWVRQAPGQRLEWMGWINTYTGKPTYAQKFQGRVTITRDTSASTAYMELSSLRSEDTAVYYCARAVFYGYTMDAWGQGTLVTVSS
VL: DIQMTQSPSSLSASVGDRVTITCRASEDIYSNLAWYQQKPGKAPKLLIFSVKRLQDGVPSRFSGSGSGTDFTLTISSLQPEDFATYYCLQGSNFPLTFGQGTKVEIKR
B3: hCl1f (antibody, human IgG1, kappa, V domains shown)
VH: QVQLVQSGAEVKKPGASVKVSCKASGYTFTDYAMHWVRQAPGQRLEWMGWINAYTGKPTYAQKFQGRVTITRDTSASTAYMELSSLRSEDTAVYYCARAVFYGYTMDAWGQGTLVTVSS
VL: DIQMTQSPSSLSASVGDRVTITCRASEDIYSNLAWYQQKPGKAPKLLIYSVKRLQDGVPSRFSGSGSGTDFTLTISSLQPEDFATYYCLQGSNFPLTFGQGTKVEIKR
B4: hCl1c (antibody, human IgG1, kappa, V domains shown)
VH: QVQLVQSGAEVKKPGASVKVSCKASGYTFTDYAMHWVRQAPGQRLEWMGWINTYTGKPTYSQKFQGRVTITRDTSASTAYMELSSLRSEDTAVYYCARAVFYGYTMDAWGQGTLVTVSS
VL: DIQMTQSPSSLSASVGDRVTITCRTSEDIYSNLAWYQQKPGKAPKLLIFAIKRLQDGVPSRFSGSGSGTDFTLTISSLQPEDFATYYCLQGSKFPLTFGQGTKVEIKR
B5: hCl1b (antibody, human IgG1, kappa, V domains shown)
VH: QVQLVQSGAEVKKPGASVKVSCKASGYTFTDYAMHWVRQAPGQRLEWMGWINTYTGKPTYSQKFQGRVTITRDTSASTAYMELSSLRSEDTAVYYCARAVFYGYTMDAWGQGTLVTVSS
VL: DIQMTQSPSSLSASVGDRVTITCRASEDIYSNLAWYQQKPGKAPKLLIFSVKRLQDGVPSRFSGSGSGTDFTLTISSLQPEDFATYYCLQGSNFPLTFGQGTKVEIKR

The target of the test is CLDN18.2 expressed in mouse healthy stomach tissue (mouse) (UniProt P56857). Kind of test: flow cytometry on live cells from healthy mouse stomach. (A flow cytometer gives signals particle by particle.)
With B1, the binding entry is given as “no binding (tested: 4 µg/ml; less than 1% of cells)”.
For the molecule B2, the binding entry is recorded as “no binding (tested: 4 µg/ml; less than 1% of cells)”.
On to B3, for which the binding entry is “no binding (tested: 4 µg/ml; less than 1% of cells)”.
With B4 the entry was “no binding (tested: 4 µg/ml; less than 1% of cells)”.
For B5, the binding result is “no binding (tested: 4 µg/ml; less than 1% of cells)”.
